Measured values as given in the supplement of paper PMC11732987, “Enantioselective OTUD7B fragment discovery through chemoproteomics screening and high-throughput optimisation” (Communications Chemistry, 2025).
The list shows a part of the results. The data scatter; read single values as rough.

Chains of the proteins cited; added tags and fusions are not shown. Lines headed by an entry give the natural chain unless they say otherwise; changes in a name come on top.
UniProt P14635, whole entry, looked up: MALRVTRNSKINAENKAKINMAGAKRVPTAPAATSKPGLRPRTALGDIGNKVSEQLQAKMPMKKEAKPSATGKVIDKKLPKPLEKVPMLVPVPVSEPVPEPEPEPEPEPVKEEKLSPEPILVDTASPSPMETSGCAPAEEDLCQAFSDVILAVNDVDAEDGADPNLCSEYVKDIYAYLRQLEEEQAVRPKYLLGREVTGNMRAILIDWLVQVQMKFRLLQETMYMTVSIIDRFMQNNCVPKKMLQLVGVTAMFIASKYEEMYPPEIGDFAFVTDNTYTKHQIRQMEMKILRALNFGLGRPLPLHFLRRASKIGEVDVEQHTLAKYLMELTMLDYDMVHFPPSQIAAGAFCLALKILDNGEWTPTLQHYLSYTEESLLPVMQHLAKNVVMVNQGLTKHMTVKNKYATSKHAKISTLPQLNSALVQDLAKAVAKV
UniProt Q69YH5: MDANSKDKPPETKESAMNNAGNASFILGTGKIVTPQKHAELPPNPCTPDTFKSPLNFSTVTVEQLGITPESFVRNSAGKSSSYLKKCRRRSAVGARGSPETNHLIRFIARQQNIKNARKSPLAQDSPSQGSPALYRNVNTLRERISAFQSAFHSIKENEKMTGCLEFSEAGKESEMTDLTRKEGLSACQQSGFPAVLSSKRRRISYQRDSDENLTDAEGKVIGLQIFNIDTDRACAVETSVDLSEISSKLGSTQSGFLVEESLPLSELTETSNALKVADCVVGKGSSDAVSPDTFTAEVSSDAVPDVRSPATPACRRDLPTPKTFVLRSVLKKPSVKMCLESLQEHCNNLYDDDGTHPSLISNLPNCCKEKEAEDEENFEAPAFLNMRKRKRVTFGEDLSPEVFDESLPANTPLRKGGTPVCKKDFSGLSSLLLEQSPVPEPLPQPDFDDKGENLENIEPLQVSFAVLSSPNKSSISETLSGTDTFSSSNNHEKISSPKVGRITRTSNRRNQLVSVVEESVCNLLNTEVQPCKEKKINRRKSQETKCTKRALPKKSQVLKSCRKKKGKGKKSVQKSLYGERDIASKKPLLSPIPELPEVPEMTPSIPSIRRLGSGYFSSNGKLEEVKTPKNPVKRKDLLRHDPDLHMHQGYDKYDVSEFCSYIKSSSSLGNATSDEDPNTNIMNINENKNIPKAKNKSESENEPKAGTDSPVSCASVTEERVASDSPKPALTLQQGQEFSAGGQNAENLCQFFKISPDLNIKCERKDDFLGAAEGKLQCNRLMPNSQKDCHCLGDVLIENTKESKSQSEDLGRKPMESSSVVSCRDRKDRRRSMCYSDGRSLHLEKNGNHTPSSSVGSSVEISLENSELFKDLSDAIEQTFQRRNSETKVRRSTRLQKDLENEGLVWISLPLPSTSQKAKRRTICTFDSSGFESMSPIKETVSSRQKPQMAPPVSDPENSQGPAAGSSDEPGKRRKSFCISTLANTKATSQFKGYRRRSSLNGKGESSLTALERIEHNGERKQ
UniProt Q9C0F1: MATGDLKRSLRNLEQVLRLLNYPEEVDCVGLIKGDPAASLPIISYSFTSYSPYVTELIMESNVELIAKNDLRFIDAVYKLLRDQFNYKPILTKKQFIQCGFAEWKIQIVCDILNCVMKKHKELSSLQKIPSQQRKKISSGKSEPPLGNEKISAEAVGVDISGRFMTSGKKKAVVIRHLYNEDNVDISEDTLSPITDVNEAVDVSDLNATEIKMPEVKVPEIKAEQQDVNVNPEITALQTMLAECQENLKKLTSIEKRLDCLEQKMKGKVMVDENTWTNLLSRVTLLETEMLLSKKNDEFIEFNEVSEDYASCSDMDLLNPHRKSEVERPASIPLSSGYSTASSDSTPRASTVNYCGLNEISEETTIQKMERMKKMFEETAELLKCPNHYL
UniProt P40227: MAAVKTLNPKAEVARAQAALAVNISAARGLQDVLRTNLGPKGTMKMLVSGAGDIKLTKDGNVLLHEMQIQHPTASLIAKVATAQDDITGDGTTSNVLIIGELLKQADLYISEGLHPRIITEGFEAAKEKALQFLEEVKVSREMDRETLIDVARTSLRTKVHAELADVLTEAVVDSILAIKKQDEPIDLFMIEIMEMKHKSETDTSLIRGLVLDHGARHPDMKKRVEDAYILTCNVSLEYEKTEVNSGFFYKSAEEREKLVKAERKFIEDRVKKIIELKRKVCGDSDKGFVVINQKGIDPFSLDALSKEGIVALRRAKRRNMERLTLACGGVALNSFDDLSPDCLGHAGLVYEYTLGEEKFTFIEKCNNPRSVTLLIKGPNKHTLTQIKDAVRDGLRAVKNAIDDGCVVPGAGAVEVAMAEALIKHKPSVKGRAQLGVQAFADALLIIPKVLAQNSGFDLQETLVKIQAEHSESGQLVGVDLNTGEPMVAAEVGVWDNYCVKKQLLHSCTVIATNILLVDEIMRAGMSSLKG
UniProt Q9P2B7: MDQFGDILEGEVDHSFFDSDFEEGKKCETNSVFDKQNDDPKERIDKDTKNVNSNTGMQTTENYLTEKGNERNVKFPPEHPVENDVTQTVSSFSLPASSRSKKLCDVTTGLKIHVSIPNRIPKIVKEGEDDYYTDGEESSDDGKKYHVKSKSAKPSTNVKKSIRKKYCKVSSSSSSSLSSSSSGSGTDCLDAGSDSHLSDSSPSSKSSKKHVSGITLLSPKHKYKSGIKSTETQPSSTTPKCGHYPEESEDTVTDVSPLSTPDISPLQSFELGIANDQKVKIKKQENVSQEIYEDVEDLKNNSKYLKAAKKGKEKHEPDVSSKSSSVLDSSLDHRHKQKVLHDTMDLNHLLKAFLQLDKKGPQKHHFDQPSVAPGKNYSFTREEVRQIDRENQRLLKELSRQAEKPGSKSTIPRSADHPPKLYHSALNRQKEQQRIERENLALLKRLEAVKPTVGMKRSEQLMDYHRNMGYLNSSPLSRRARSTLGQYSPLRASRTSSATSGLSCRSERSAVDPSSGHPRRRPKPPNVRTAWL
UniProt P50991: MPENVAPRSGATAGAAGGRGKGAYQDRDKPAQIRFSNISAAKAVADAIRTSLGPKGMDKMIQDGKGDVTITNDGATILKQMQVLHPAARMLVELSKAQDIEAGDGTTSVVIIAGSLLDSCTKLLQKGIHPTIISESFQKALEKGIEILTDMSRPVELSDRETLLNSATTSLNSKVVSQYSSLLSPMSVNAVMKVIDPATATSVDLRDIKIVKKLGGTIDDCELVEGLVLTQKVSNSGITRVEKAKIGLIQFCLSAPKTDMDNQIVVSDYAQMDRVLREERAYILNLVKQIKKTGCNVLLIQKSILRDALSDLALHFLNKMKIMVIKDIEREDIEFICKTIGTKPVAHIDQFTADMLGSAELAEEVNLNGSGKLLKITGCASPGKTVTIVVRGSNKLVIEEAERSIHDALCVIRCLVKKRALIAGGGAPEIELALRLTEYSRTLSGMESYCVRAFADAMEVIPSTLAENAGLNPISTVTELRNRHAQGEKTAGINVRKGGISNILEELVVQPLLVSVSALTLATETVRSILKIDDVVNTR
UniProt P49454: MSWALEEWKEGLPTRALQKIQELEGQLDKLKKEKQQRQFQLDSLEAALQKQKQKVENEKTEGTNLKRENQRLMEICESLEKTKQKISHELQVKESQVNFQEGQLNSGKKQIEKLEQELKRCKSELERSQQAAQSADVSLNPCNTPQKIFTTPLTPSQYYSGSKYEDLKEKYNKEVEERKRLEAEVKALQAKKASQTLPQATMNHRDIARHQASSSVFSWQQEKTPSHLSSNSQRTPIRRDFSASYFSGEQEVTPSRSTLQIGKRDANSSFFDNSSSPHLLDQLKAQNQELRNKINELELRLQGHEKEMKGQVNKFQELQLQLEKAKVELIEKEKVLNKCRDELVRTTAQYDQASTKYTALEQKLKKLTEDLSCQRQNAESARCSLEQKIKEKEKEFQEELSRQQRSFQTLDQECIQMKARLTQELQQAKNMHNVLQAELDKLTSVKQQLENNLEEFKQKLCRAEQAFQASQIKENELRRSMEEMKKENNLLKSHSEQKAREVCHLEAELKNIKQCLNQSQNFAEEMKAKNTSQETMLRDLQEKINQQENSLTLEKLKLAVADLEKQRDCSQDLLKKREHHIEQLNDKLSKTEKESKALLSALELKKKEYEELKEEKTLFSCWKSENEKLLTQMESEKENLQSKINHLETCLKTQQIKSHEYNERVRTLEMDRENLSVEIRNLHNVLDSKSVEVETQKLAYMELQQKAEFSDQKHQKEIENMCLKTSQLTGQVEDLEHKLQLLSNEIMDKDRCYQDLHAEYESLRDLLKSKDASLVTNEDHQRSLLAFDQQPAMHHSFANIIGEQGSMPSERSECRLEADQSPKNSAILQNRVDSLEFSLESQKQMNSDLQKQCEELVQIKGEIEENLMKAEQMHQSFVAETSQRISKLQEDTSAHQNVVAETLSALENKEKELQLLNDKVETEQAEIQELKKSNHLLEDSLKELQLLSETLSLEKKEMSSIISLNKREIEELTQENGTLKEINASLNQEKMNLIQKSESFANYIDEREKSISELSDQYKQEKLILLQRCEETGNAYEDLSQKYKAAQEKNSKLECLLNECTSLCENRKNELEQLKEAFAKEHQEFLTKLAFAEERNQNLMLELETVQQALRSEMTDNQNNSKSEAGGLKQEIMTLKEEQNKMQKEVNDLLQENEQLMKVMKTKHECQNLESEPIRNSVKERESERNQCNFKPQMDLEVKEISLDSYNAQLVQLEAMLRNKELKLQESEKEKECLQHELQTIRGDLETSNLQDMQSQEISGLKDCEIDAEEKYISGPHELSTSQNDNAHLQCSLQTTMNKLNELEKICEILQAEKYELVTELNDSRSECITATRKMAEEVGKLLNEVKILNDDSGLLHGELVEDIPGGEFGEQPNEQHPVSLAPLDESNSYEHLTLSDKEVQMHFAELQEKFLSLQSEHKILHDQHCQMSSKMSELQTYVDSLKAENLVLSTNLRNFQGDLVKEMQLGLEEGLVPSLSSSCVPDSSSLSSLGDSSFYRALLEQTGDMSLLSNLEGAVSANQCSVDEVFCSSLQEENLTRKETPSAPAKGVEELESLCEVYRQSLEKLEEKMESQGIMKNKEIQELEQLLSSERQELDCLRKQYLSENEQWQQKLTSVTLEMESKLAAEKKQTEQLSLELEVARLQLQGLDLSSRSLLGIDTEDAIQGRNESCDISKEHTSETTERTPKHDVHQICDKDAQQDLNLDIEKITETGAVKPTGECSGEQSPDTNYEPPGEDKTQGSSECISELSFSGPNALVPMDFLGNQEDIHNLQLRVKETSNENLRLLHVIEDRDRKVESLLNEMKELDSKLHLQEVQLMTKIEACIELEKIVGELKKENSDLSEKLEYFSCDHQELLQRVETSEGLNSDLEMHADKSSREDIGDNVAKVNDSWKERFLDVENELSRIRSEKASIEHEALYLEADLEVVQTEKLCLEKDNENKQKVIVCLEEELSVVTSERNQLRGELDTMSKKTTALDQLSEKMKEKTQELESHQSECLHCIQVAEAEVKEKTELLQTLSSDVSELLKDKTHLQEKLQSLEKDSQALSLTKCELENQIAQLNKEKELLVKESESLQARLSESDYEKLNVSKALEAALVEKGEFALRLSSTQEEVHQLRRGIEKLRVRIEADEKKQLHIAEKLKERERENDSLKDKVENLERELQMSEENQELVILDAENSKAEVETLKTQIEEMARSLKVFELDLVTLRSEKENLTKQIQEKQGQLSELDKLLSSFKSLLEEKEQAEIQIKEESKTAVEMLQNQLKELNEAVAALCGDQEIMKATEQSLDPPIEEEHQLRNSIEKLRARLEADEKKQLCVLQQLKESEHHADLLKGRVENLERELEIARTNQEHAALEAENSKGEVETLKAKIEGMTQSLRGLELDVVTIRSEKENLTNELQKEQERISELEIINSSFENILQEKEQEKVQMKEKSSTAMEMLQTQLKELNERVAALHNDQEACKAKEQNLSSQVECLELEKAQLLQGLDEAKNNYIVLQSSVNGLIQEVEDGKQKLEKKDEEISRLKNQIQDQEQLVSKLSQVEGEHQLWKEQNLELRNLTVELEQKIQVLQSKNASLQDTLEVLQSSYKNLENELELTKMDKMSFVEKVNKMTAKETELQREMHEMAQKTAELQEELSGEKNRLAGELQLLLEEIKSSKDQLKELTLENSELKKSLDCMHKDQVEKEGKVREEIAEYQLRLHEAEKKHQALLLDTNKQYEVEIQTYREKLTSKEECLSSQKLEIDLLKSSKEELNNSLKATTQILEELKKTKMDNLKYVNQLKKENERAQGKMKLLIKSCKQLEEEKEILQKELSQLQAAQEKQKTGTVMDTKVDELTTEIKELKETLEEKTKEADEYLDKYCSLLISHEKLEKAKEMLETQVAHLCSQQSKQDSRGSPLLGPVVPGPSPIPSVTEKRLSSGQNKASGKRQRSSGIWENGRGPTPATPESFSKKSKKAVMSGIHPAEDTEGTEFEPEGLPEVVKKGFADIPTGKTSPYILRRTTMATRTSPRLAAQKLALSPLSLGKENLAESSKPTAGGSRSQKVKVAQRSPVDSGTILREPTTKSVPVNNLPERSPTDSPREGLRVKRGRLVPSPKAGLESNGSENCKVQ

Compound: ClCC(=O)N[C@@H]1CCCc2ccccc12
Experiment: log2 mean competition ratio of IA-DTB cysteine labelling (DMSO/compound) (log2 ratio); higher = stronger cysteine engagement by compound
Details: 200 µM; treatment time: 4 h; cell line lysate: HEK293T
Experimental: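 IA-DTB competitive cysteine chemoproteomics in HEK293T RIPA lysate. Lysates were treated with compound 29 or 30 at 50 or 200 µM for 4 h, then IA-DTB (500 µM, 1 h), trypsin-digested, NeutrAvidin-enriched and analysed by diaPASEF. Competition ratio = intensity DMSO / intensity compound (n=4 treated, n=64 DMSO); binding: mean log2 CR ≥ 1 and p ≤ 0.05 plus QC filters. Target is the cysteine site.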

Row | Target | log2 mean competition ratio
1 | CECR2 C1036 | 0.308
2 | CCNB1 C238 (UniProt P14635) | -0.0765
3 | CCT3 C213 | 0.202
4 | CCDC97 C136 (UniProt Q96F63) | -0.0642
5 | CCDC47 C283 (UniProt Q96A33) | -0.0103
6 | CENPS C58 (UniProt Q8N2Z9) | -0.179
7 | CDCA2 C835 (UniProt Q69YH5) | 0.241
8 | CEP44 C28 (UniProt Q9C0F1) | -0.0545
9 | CCT6A C282 (UniProt P40227) | -0.152
10 | CFAP97 C504 (UniProt Q9P2B7) | 0.162
11 | CC2D1A C310 (UniProt Q6P1N0) | -0.0481
12 | CCT4 C337 (UniProt P50991) | -0.0261
13 | CDK5RAP2 C528 (UniProt Q96SN8) | 0.137
14 | CDX2 C166 | 0.325
15 | CFL1 C139 | -0.19
16 | CENPQ C121 (UniProt Q7L2Z9) | 0.108
17 | CENPF C503 (UniProt P49454) | 0.118

From no. 11 to 12, copied from above:
Row | Target | log2 mean competition ratio
11 | CC2D1A C310 (UniProt Q6P1N0) | -0.0481
12 | CCT4 C337 (UniProt P50991) | -0.0261
